Measurements published in PubChem BioAssay AID445 (National Center for Advancing Translational Sciences (NCATS), 2006).
The other results are listed elsewhere or left out. These are further read-outs of the screen, such as a control signal, another cell line or another target. No call is given for them. The list favours compounds with an active or inconclusive main result. Words in brackets tell the shape of the fitted curve; partial curves, single points and poor fits give uncertain potencies.

Test: IkB Signaling
Conditions: ABC-DLBCL IkBa-CBG/CBR dual luciferase ratio (green luciferase fused to IkBa over red control in OCI-Ly3 lymphoma cells), 4 h
Procedure, shortened: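 Luminescence ratio of IκBα-fused green versus native red beetle luciferase in OCI-Ly3 cells, 4 h post-doxycycline with compound; red signal alone, scaled from basal (0%) to zero light (-100%), flagged nonspecific or cytotoxic effects.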

[1] = measured here: control luc red channel unless noted

CCOc1ccc(C(=O)Nc2cc(-c3nc4ccccc4s3)ccc2OC)cc1
AC50 [1]: 3.98 µM [rising, full curve]

Cc1cccc(NC(=O)C2CCCN(c3nc4ccccc4s3)C2)c1C (stereo not drawn)
AC50 [1]: 12.6 µM [falling, partial curve]

Cc1ccc(CCNC(=O)c2ccc(CS(=O)(=O)Cc3ccccc3F)o2)cc1
AC50 [1]: 12.6 µM [falling, partial curve]

COc1ccc(S(=O)(=O)N2CCN(Cc3cccc(Cl)c3)CC2)cc1
AC50 [1]: 15.8 µM [falling, partial curve]

O=S(=O)(Nc1ccc(Cl)cc1)c1cccc(S(=O)(=O)c2ccc(Cl)c(Cl)c2)c1
AC50 [1]: 20 µM [falling, partial curve]

CCCCN(C)C(=O)Cn1c(SCC(=O)Nc2ccc(C)c(C)c2)nc2ccccc21
AC50 [1]: 25.1 µM [falling, single point]

Cc1nc2ccccc2n1CCc1nc2c3ccccc3nc(SCc3ccc(F)cc3)n2n1
AC50 [1]: 1.26 µM [rising, full curve]

COc1ccccc1N1CCN(CC(O)COc2ccc(C)cc2C(C)(C)C)CC1 (stereo not drawn)
AC50 (measured here: IkB-luc green channel): 31.6 µM [falling, single point]
AC50 (measured here: control luc red channel): 25.1 µM [falling, partial curve]

CNc1nc(-c2ccc(Cl)cc2)cs1
AC50 [1]: 3.16 µM [rising, partial curve]

CCOC(=O)c1c(C)oc2nc(C)nc(NCC3CCN(Cc4cccc(Cl)c4)CC3)c12
AC50 [1]: 10 µM [falling, partial curve, poor fit]

CCOc1cc(CNC(=O)c2ccc3nc(CCc4ccccc4)oc3c2)ccc1OC
AC50 [1]: 3.16 µM [rising, partial curve]

Cc1ccc(S(=O)(=O)NCCc2csc3nc(-c4ccccc4C)nn23)cc1
AC50 [1]: 25.1 µM [falling, single point]

O=S(=O)(c1cccs1)N1CCN(CC(O)COc2cc(Cl)ccc2Cl)CC1 (stereo not drawn)
AC50 [1]: 15.8 µM [falling, partial curve]

Cc1ccc(CNC(=O)C(C)n2ccc3cc(S(=O)(=O)N4CCCC4)ccc32)cc1 (stereo not drawn)
AC50 [1]: 10 µM [falling, partial curve]

O=C(Nc1nnc(SCc2cc(=O)n3cc(Cl)ccc3n2)s1)c1cccc(F)c1
AC50 [1]: 0.316 µM [falling, full curve, poor fit]

O=C(c1ccc2c(Cl)c3c(nc2c1)CCCC3)N1CCN(c2ccccc2F)CC1
AC50 [1]: 12.6 µM [falling, partial curve]

CCc1ccc(-c2cn(-c3nc(C)cc(C)n3)c(=N)o2)cc1
AC50 [1]: 10 µM [falling, partial curve]
